According to paper PMC3590290:
No constants are given. Whether binding was seen depends on the method and setting. In cells and extracts the contact can be indirect.

Chains of the proteins cited; added tags and fusions are not shown.
UniProt P62258: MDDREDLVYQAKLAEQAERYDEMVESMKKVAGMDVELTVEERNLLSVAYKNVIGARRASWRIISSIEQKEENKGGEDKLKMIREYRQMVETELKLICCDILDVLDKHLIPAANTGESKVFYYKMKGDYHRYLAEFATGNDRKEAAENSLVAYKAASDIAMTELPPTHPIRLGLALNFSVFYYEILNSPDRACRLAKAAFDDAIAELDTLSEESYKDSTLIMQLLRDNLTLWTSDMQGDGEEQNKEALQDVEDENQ

Biological target: 3XFlag-14-3-3ε (UniProt P62258)
Assay: co-IP; 14-3-3ε stable cell lysates immunoprecipitated with anti-Flag antibody on Protein A magnet beads (Millipore), Western blot for Zeb-1

binding: no binding
B1: Zeb-1 (protein, UniProt P37275 1-1124)
chain: MADGPRCKRRKQANPRRNNVTNYNTVVETNSDSDDEDKLHIVEEESVTDAADCEGVPEDDLPTDQTVLPGRSSEREGNAKNCWEDDRKEGQEILGPEAQADEAGCTVKDDECESDAENEQNHDPNVEEFLQQQDTAVIFPEAPEEDQRQGTPEASGHDENGTPDAFSQLLTCPYCDRGYKRFTSLKEHIKYRHEKNEDNFSCSLCSYTFAYRTQLERHMTSHKSGRDQRHVTQSGCNRKFKCTECGKAFKYKHHLKEHLRIHSGEKPYECPNCKKRFSHSGSYSSHISSKKCISLIPVNGRPRTGLKTSQCSSPSLSASPGSPTRPQIRQKIENKPLQEQLSVNQIKTEPVDYEFKPIVVASGINCSTPLQNGVFTGGGPLQATSSPQGMVQAVVLPTVGLVSPISINLSDIQNVLKVAVDGNVIRQVLENNQANLASKEQETINASPIQQGGHSVISAISLPLVDQDGTTKIIINYSLEQPSQLQVVPQNLKKENPVATNSCKSEKLPEDLTVKSEKDKSFEGGVNDSTCLLCDDCPGDINALPELKHYDLKQPTQPPPLPAAEAEKPESSVSSATGDGNLSPSQPPLKNLLSLLKAYYALNAQPSAEELSKIADSVNLPLDVVKKWFEKMQAGQISVQSSEPSSPEPGKVNIPAKNNDQPQSANANEPQDSTVNLQSPLKMTNSPVLPVGSTTNGSRSSTPSPSPLNLSSSRNTQGYLYTAEGAQEEPQVEPLDLSLPKQQGELLERSTITSVYQNSVYSVQEEPLNLSCAKKEPQKDSCVTDSEPVVNVIPPSANPINIAIPTVTAQLPTIVAIADQNSVPCLRALAANKQTILIPQVAYTYSTTVSPAVQEPPLKVIQPNGNQDERQDTSSEGVSNVEDQNDSDSTPPKKKMRKTENGMYACDLCDKIFQKSSSLLRHKYEHTGKRPHECGICKKAFKHKHHLIEHMRLHSGEKPYQCDKCGKRFSHSGSYSQHMNHRYSYCKREAEERDSTEQEEAGPEILSNEHVGARASPSQGDSDERESLTREEDEDSEKEEEEEDKEMEELQEEKECEKPQGDEEEEEEEEEVEEEEVEEAENEGEEAKTEGLMKDDRAESQASSLGQKVGESSEQVSEEKTNEA
